The exact form of at least one protein or probe is not confirmed. For some of these results: The comparison behind a weaker result is the experiment's own reference, which may not be listed here. At least one verdict rests on a figure or table, not on a statement of the authors. Tags and fusion partners may be left off the protein sequences shown.

One series concerns the target T1, YagL-HTH (UniProt P77607).
T1 sequence (looked up): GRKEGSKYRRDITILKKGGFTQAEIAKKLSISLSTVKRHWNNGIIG
Description: filter binding. Conditions: 75 mM Tris-HCl pH 7.5, 0.4 mM spermidine, 0.1 mM MgCl2, 50 mM NaCl, 0.5 mM EDTA, 0.25 mM DTT, 6% glycerol, 10 min at room temperature, 50 fmol RNA in 60 µL, recombinant protein, residues 187-232, label: 5'-32P (printed as [31]P).

The target in a further series is T2, YagL-dHTH (UniProt P77607).
T2 sequence (looked up): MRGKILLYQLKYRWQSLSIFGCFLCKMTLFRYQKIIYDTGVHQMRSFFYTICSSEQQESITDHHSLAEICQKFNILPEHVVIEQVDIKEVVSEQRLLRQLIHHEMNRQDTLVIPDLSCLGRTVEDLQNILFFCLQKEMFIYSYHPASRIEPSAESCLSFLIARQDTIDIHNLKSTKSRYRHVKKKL
Description: filter binding. Conditions: minimal binding at any tested concentration; 75 mM Tris-HCl pH 7.5, 0.4 mM spermidine, 0.1 mM MgCl2, 50 mM NaCl, 0.5 mM EDTA, 0.25 mM DTT, 6% glycerol; 10 min at room temperature; 50 fmol RNA in 60 µL; recombinant protein; residues 1-186; label: 5'-32P (printed as [31]P).

As to AUGUGGAAAAUCUCUAGCAGU [21 R+], the binding result with YagL-HTH (Hill coefficient 2.1 ± 0.5, range given over all three RNAs, ssRNA twofold tighter than hairpin) was “binds”.
Take CUGCUAGAGAUUUUCCACAU [21 R-]: the binding result with YagL-HTH (Hill coefficient 2.4 ± 0.6, range given over all three RNAs, ssRNA twofold tighter than hairpin) was “binds”.
As to GCUCUAGAGCAUUAUGUUCAGAUAAGG [hairpin], the binding result is “binds” with YagL-HTH (Hill coefficient 1.8 ± 0.3, range given over all three RNAs, twofold weaker than ssRNAs) and “binds more weakly” with YagL-dHTH.
